Results of single-concentration screens

Source: ChEMBL document CHEMBL3988442, “University of Dundee, Small-Polar-MMV Screening Library” (2021).

The filed quantity is “Percent Effect” (%). The record does not define 0% and 100%; most values in the screen are far below 50% and negative numbers occur (in some assays of this library far below -100). Compounds were drawn at random from those tested, without regard to their results. Two or more numbers in one place are separate tests of the same structure; such repeats can differ widely.

Mtb glucose medium: 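Growth of Mycobacterium tuberculosis over 3 days (7H9 medium with glucose and tyloxapol); the read-out is not stated. Compounds at 50 µM. The record gives no direction; compounds that gave an IC50 in retests scored well above the rest, so higher reads as more growth inhibition. Size under these conditions: about 69,000 compounds, about 760 of them at 50% or above in at least one test.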
Mtb cholesterol medium: 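Growth of Mycobacterium tuberculosis over 4 days (cholesterol / DPPC medium with tyloxapol); the read-out is not stated. Compounds at 50 µM. Higher reads as more growth inhibition (inferred: compounds with an IC50 in retests scored well above the rest). Of about 69,000 compounds tested this way, about 370 (0.54%) reached 50% or more in at least one test.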

- O=C(NC1CC1)N1CCOC2(CCCN(c3cccc(F)c3)C2)C1 (stereo not drawn) | Mtb glucose medium: -24.48% & 0.4606%; Mtb cholesterol medium: -16.77%
- CC(C)c1ncc2c(n1)CN(Cc1nnc(Cc3ccccc3)o1)CC2 | Mtb glucose medium: 2.836%; Mtb cholesterol medium: -18.04%
- CN1CC[C@H](N(Cc2ccccc2)C2COC2)C[C@H](O)C1 | Mtb glucose medium: 8.325%; Mtb cholesterol medium: -3.859%
- CC(C)NCc1cccnc1N1CCN(c2ccccn2)CC1 | Mtb glucose medium: 5.569% & 7.768%; Mtb cholesterol medium: 16.18%
- COCCOC(=O)N1CCC(c2nccn2CC2CC2)CC1 | Mtb glucose medium: -14.47%; Mtb cholesterol medium: -11.95% & -6.162%
- COC(=O)CSc1nnc2[nH]c(=O)c3c(n12)CCCC3 | Mtb glucose medium: -3.567% & 9.162%; Mtb cholesterol medium: -8.42%
- CCOc1cc(C)ccc1NC(=O)N(C)Cc1cnn(C)c1 | Mtb glucose medium: 13.27%; Mtb cholesterol medium: -0.4128%
- CC(=O)N1CCN(C(=O)NCc2cccnc2OC(C)C)CC1 | Mtb glucose medium: -62.96% & 3.877%; Mtb cholesterol medium: 1.028%
- O=C(c1ccc(CN2CCCCC2)cc1)N1CCCC1c1cccs1 (stereo not drawn) | Mtb glucose medium: 6.944%; Mtb cholesterol medium: -7.241%
- O=C1NCCN1C1CCN(Cc2coc(-c3ccc(F)cc3)n2)CC1 | Mtb glucose medium: -18.85%; Mtb cholesterol medium: -4.153%
- O=C(O)C(F)(F)F.[H][C@@]12CCCO[C@]1([H])[C@H](NS(=O)(=O)CC)CN(Cc1cc(C)on1)C2 | Mtb glucose medium: 0.3421%; Mtb cholesterol medium: -4.369%
- CCOc1cc(/C=C/c2ncc(C(=O)NC)s2)ccc1OC | Mtb glucose medium: 4.425% & 3.461%; Mtb cholesterol medium: 5.79%
- c1ccn2c(SCC3CN=C(N4CCOCC4)S3)ncc2c1 (stereo not drawn) | Mtb glucose medium: 16.64%; Mtb cholesterol medium: -14.55%
- CC(C)NC(=O)C1CCC2(CCN(Cc3cnn(C)c3)CC2)CO1.O=C(O)C(F)(F)F (stereo not drawn) | Mtb glucose medium: 14.48%; Mtb cholesterol medium: -3.445%
- CC(=O)Nc1ncc(S(=O)(=O)Nc2cccc(O)c2)s1 | Mtb glucose medium: 13.72%; Mtb cholesterol medium: -7.365%
- CCS(=O)(=O)N1CCC(Nc2ccc(C#N)cc2F)CC1 | Mtb glucose medium: -11.2%; Mtb cholesterol medium: -23.66%
- O=C(O)C(F)(F)F.[H][C@]12CCN(CC3CC3)C(=O)[C@]1([H])CN(C1CCOCC1)C2 | Mtb glucose medium: -18.64%; Mtb cholesterol medium: 16.82%
- CC(=O)c1cc(C(=O)N2CCC3(CC2)Nc2ccccc2NC3=O)cs1 | Mtb glucose medium: -11.61%; Mtb cholesterol medium: -4.848% & -10.56%
- Cc1nnc(CN(C)CC(=O)N2CCCC(C(F)(F)F)C2)n1C (stereo not drawn) | Mtb glucose medium: -4.832% & -13.31%; Mtb cholesterol medium: -7.884%
- COc1ccc2cc(C(=O)N3CC[C@H](CO)[C@H](O)C3)n(C)c2c1 | Mtb glucose medium: 6.519%; Mtb cholesterol medium: 9.872%
- O=C(c1ccccn1)N1CC(S(=O)(=O)c2ccc(Cl)cc2)C1 | Mtb glucose medium: 5.096%; Mtb cholesterol medium: 1.917%
- CC(C)N(C(=O)c1ccnc(OCC(F)(F)F)c1)c1cccnc1 | Mtb glucose medium: 8.799% & -1.104%; Mtb cholesterol medium: 2.742%
- Cc1cnc(CN2CCN(c3nc(C)cs3)C(C)C2)cn1 (stereo not drawn) | Mtb glucose medium: -4.414%; Mtb cholesterol medium: 16.74%
- Cc1nc(Nc2nncs2)cc(C2CCCN2)n1.Cl (stereo not drawn) | Mtb glucose medium: -29.82%; Mtb cholesterol medium: 12.65% & -5.974%
- [H][C@@]12CC(=O)N(C)[C@@]1([H])CCN2S(=O)(=O)Cc1ccc(C)cc1 | Mtb glucose medium: -25.49%; Mtb cholesterol medium: -2.662%
- O=C(NCc1cccnc1)C1CN(c2cnc3ccccc3n2)CCN1 (stereo not drawn) | Mtb glucose medium: 13.04%; Mtb cholesterol medium: -21.46%
- [H][C@]12CC[C@]([H])(CN(c3nc(C)nc4sccc34)C1)[C@@H]2OC | Mtb glucose medium: 6.951%; Mtb cholesterol medium: 4.864%
- O=C(CC1CCCC1)N1CCC2(CCN2Cc2ccc(F)cc2)C1.O=C(O)C(F)(F)F (stereo not drawn) | Mtb glucose medium: 7.958%; Mtb cholesterol medium: -2.352%
- Cc1ccc(-c2cnc3n2CCN(C)C32CCN(CC3CC3)CC2)cc1.O=C(O)C(F)(F)F.O=C(O)C(F)(F)F.O=C(O)C(F)(F)F | Mtb glucose medium: 2.737% & -9.312%; Mtb cholesterol medium: 17.6%
- N[C@@H](Cc1c[nH]cn1)C(=O)N1CCC(Oc2ccc(Cl)cc2)CC1 | Mtb glucose medium: 6.972%; Mtb cholesterol medium: -4.507%
- Cc1nccn1CC1CCN(C(=O)c2cccs2)CC1 | Mtb glucose medium: -14.89%; Mtb cholesterol medium: -24.36%
- Cc1c(C(=O)NCC(C)(C)S(C)(=O)=O)cccc1-c1ccccn1 | Mtb glucose medium: -15.67%; Mtb cholesterol medium: 8.509%
- CC(=O)c1cn(CCC(=O)Nc2c3c(nn2C)CSC3)c2ccccc12 | Mtb glucose medium: 5.194% & 3.671%; Mtb cholesterol medium: -39.58%
- O=C(CCn1cccn1)N1CCC(c2nnc(-c3ccsc3)o2)CC1 | Mtb glucose medium: -25.02%; Mtb cholesterol medium: -9.122% & -18.96%

Once more, the final 3:

* Cc1c(C(=O)NCC(C)(C)S(C)(=O)=O)cccc1-c1ccccn1 | Mtb glucose medium: -15.67%; Mtb cholesterol medium: 8.509%
* CC(=O)c1cn(CCC(=O)Nc2c3c(nn2C)CSC3)c2ccccc12 | Mtb glucose medium: 5.194% & 3.671%; Mtb cholesterol medium: -39.58%
* O=C(CCn1cccn1)N1CCC(c2nnc(-c3ccsc3)o2)CC1 | Mtb glucose medium: -25.02%; Mtb cholesterol medium: -9.122% & -18.96%